# Laboratory results published in PubChem BioAssay AID504850 (National Center for Advancing Translational Sciences (NCATS), 2011).
# In all, about 2,300 compounds went through this assay and about 1,200 (52%) were called active. The set was probably picked from earlier hits. This list was built around the results that the source calls inconclusive (neither active nor inactive); the mix of calls is not that of the screen. Calls follow the shape of the dose curve; as a rule, active = well fitted inhibition curve with a large enough effect; inconclusive = small, poorly fitted or top-dose-only effect, or effect the other way; inactive = no such curve, though single readings can be large or run the other way. Where the call is inconclusive, the potency comes from a doubtful curve fit.
# Assay: Confirmation screen for delayed death inhibitors of the malarial parasite plastid, 48 hour incubation; also: nearly all actives have a fitted effect of over 65% in size
# Details: P. falciparum-infected erythrocytes, luciferase growth; series mostly up to 28.7 µM; activity change, negative = inhibition: at the top concentration
# From the text: The goal of this screen is to discover new antimalarial compounds that act by inhibiting the development of the apicoplast in the malarial parasite Plasmodium falciparum. The biochemical processes that make this organelle essential for erythrocytic stage parasites are not well understood. However, antibiotics, such as azithromycin and tetracycline, which target the apicoplast translational machinery, have a potent antimalarial effect. […] We have developed a cell-based assay that measures parasite growth based on the expression of an integrated copy of a firefly luciferase reporter. To detect small molecules that cause this "delayed death phenotype, erythrocytes infected with the luciferase-expressing parasites were incubated with compounds for either one or two generations, corresponding to 48 and 96 hours, respectively. Compounds that inhibit parasite growth in the second generation, but not the first, should be enriched in antimalarials that target the apicoplast. Growth inhibition is detected by a decrease in luciferase activity. MLPCN Grant: R21 NS059500 Assay Provider: David Fidock and Eric Ekland, Columbia University Keywords: NIH Roadmap, MLPCN, MLI, MLSMR, qHTS, NCGC, qHTS, malaria, luciferase, viability
# Four microliters of culture medium (RPMI 1640 with 0.5% w/v Albumax (GIBCO), 24 mM sodium bicarbonate and 10 ug/mL gentamycin) were dispensed by a Multi-drop Combi into white solid 1536-well plates (Grenier) and 23 nL compound was added by a pin tool. Four microliters of infected erythrocytes (2% hematocrit, 0.1% parasitemia final concentration) in culture medium were dispensed and the plates incubated for 48 hours at 37 C in 5% CO2. Two microliters of luciferase detection reagent was added and luminescence was detected by a ViewLux (PerkinElmer) reader.
# % is scaled to controls: 0 for no effect and ±100 for the full control effect; potency is read from the fitted curve at half-maximal effect.
Structure (SMILES),Potency,"activity change, negative = inhibition"
C=CCOc1ccc(/C=C\c2nc(O)c([N+](=O)[O-])c(=O)[nH]2)cc1OC,"inconclusive: 15.8 µM [inhibitor, single point]",
Cn1nnnc1Sc1ncnc2scc(-c3cccc(S(C)(=O)=O)c3)c12,active: 12.6 µM,
O=C(NCc1cccc(Cl)c1)C1CCC(=O)N(CC2CCCCC2)C1 (centres undefined),active: 14.1 µM,
Cc1sc2nc(C3CC3)nc(SCC(=O)N3c4ccccc4CC3C)c2c1C (centres undefined),active: 14.1 µM,
O=C(NNC(=S)Nc1ccccc1Cl)c1ccccc1Cl,"inconclusive: 2.51 µM [activator, partial curve]",
CC(=O)c1cc(NC(=O)c2cccc(C(F)(F)F)c2)c(=O)oc1C,"inconclusive: 17.8 µM [inhibitor, single point]",
Cc1cc(=O)nc2c3ccccc3n(CC(=O)NCCC3=CCCCC3)n12,active: 12.6 µM,
CN(C)S(=O)(=O)c1cc(NC(=O)C2=COCCO2)ccc1Cl,"inconclusive: 7.94 µM [inhibitor, partial curve]",
Cc1ccccc1Cn1nc(C)c(NC(=O)c2noc3c2CCCC3)c1C,"inconclusive: 15.8 µM [inhibitor, single point]",
O=C(N/N=C/c1cccc(O)c1)c1cc(-c2ccccc2)nc2ccccc12,"inconclusive: 15.8 µM [inhibitor, single point]",
CCOc1ccc(/C=N/OCC(=O)Nc2ccc(OCc3ccccc3)cc2)cc1OC,"inconclusive: 12.6 µM [inhibitor, partial curve]",
COc1ccc2cc3cc(C(=O)N(C)C4CCCCC4)oc3nc2c1,"inconclusive: 15.8 µM [inhibitor, single point]",
Cc1ccc(-n2c(SCC(=O)Nc3cccc(S(N)(=O)=O)c3)nc3ccccc32)cc1,"inconclusive: 12.6 µM [inhibitor, partial curve]",
Cc1ccc(C)c(S(=O)(=O)N2CCN(C(=O)/C=C/c3ccco3)CC2)c1,"inconclusive: 15.8 µM [inhibitor, partial curve, poor fit]",
CCCN(CC1CC1)C(=S)NC(=O)c1cc(Br)ccc1Cl,"inconclusive: 22.4 µM [inhibitor, single point]",
COc1cc(C(C)=O)ccc1OCC(O)CN1CCN(c2ccc(C)c(C)c2)CC1 (centres undefined),"inconclusive: 15.8 µM [inhibitor, single point]",
Cc1cc(C)cc(NC(=O)c2cccnc2)c1,,inactive: -20.6%
CCCCN(C)C(=O)C1CCC(CNS(=O)(=O)c2ccc3c(c2)CC(C)N3C(=O)C2CC2)CC1 (centres undefined),active: 12.6 µM,
Nc1ccc(Cc2nc3cc4ccccc4cc3[nH]2)cc1,"inconclusive: 3.55 µM [activator, partial curve]",
CCCN(Cc1ccccc1)C(=O)Nc1ccc2c(c1)nnn2C,"inconclusive: 2.82 µM [activator, partial curve]",
Cc1ccc(NC(=O)CN2C(=O)S/C(=C\c3ccccn3)C2=O)cc1C,,inactive: -1.34%
COc1cccc(C(=O)NC(C)c2cccc3ccccc23)c1OC (centres undefined),"inconclusive: 15.8 µM [inhibitor, single point]",

# No new results follow: an excerpt of the list.
Structure (SMILES),Potency,"activity change, negative = inhibition"
CCOc1ccc(/C=N/OCC(=O)Nc2ccc(OCc3ccccc3)cc2)cc1OC,"inconclusive: 12.6 µM [inhibitor, partial curve]",
COc1ccc2cc3cc(C(=O)N(C)C4CCCCC4)oc3nc2c1,"inconclusive: 15.8 µM [inhibitor, single point]",

# Further results

Structure (SMILES),Potency,"activity change, negative = inhibition"
COc1ccc(S(=O)(=O)N(C)c2ccc(C(=O)Nc3cccnc3)cc2)cc1OC,active: 14.1 µM,
CCCNC(=O)c1nnsc1S(=O)(=O)c1ccc(Cl)cc1,,inactive: -15.3%
Cc1ccsc1/C=N/n1c(=S)[nH]nc(C)c1=O,"inconclusive: 25.1 µM [inhibitor, single point]",
CCCN1CCN(CCCNC(=O)c2cc3c(s2)-c2c(C)cccc2OC3)CC1,"inconclusive: 22.4 µM [inhibitor, single point]",
COc1cccc(N/C(SCc2cccc([N+](=O)[O-])c2)=C(/C#N)C(N)=O)c1,,inactive: 0.153%
O=C(Nc1ccccc1)c1cccc(S(=O)(=O)NCc2ccco2)c1,,inactive: -16.7%
COc1ccc(CN(CCC(c2ccccc2)c2ccco2)C(=O)c2ccco2)cc1 (centres undefined),active: 10 µM,
Cn1c(SCC(=O)N2CCCCCC2)nc2c(c1=O)SCC2,"inconclusive: 17.8 µM [inhibitor, single point]",
COc1cc2c(cc1OC)[C@@H](NC(=O)C(C)C)[C@H](OCc1ccccc1)C2,"inconclusive: 15.8 µM [inhibitor, partial curve, poor fit]",
O=c1c2ccccc2[nH]c(=S)n1CCCN1CCN(c2ccccc2)CC1,"inconclusive: 14.1 µM [inhibitor, single point]",
CCOc1cc([N+](=O)[O-])cc(/C=N/NC(=O)c2c(-c3ccccc3)noc2C)c1O,"inconclusive: 22.4 µM [inhibitor, partial curve, poor fit]",
COc1cccc(C2=CC(=O)C[C@H](c3ccc(F)cc3)C2)c1OC,,inactive: -27.1%
COc1ccc(C2(CCN)CC(C)N(C)CC2C)cc1 (centres undefined),"inconclusive: 15.8 µM [inhibitor, single point]",
Cc1ccc(/C(C#N)=C\c2ccc(N3CCOCC3)o2)cc1,"inconclusive: 3.98 µM [activator, partial curve]",
CCc1nn2c(=O)cc(COc3ccc(NC(=O)c4ccco4)cc3)nc2s1,,inactive: -43.4%
CC(C)NC(=O)c1onc(CSc2cccc(F)c2)c1C(=O)O,,inactive: -9.89%
CCc1ccc(Nc2nc(N3CCOCC3)nc(N3CCOCC3)n2)cc1,"inconclusive: 15.8 µM [inhibitor, single point]",
CCOC(=O)Nc1ccc2c(CNC(C)c3ccccc3OC)cc(=O)oc2c1 (centres undefined),active: 14.1 µM,
CC(C)[C@H](NC(=O)[C@@H]1Cc2c([nH]c3ccccc23)C2c3ccccc3C(=O)N21)C(=O)N1CCC[C@@H]1C(=O)O (some centres undefined),"inconclusive: 15.8 µM [inhibitor, single point]",
Cc1ccc(CN2CCC(n3nccc3NC(=O)c3ccccc3C)CC2)o1,"inconclusive: 12.6 µM [inhibitor, partial curve]",
NC(=O)c1cc2c3ccccc3ccn2c1-c1ccccc1,"inconclusive: 5.01 µM [activator, partial curve]",
Cc1cc(C(C)(C)C)cc(C)c1CCNC(=O)c1ccc[n+]([O-])c1,active: 14.1 µM,
